PubChem BioAssay AID2517 (National Center for Advancing Translational Sciences (NCATS), 2010)
“And” between values parts separate entries of the source, which are not always exact repeats. Equal values may be shown once. Screen size: about 350,000 compounds; about 1,200 (0.34%) were called active. The shares of active, inactive and inconclusive entries below differ from those in the screen. Calls come from the whole dose curve; as a rule, active = well fitted inhibition curve with a large enough effect; inconclusive = small, poorly fitted or top-dose-only effect; inactive = no such curve, though single readings can be large or run the other way. Potencies of inconclusive entries are doubtful fits and often do not repeat.

By UniProt entry, the sequences of proteins in these tests, tags left out.
UniProt P27695, whole entry, looked up: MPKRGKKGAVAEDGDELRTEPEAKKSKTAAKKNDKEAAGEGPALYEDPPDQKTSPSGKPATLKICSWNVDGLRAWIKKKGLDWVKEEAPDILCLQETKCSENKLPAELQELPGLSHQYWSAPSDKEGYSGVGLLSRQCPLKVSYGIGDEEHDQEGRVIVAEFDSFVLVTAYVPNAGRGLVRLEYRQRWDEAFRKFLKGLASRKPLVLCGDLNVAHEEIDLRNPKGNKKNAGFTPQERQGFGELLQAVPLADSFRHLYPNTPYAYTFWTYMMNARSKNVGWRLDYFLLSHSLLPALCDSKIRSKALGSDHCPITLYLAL

Target: DNA repair nuclease/redox regulator APEX1 (Homo sapiens) (UniProt P27695)
Assay: qHTS Assay for Inhibitors of the Human Apurinic/apyrimidinic Endonuclease 1 (APE1); note: nearly all actives have a fitted effect of over 55% in size;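 for activity change, negative = inhibition: plate controls were vehicle for no effect and reference inhibitor for full effect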
Settings: recombinant APE1, TAMRA/BHQ-2 abasic DNA cleavage fluorescence; activity change, negative = inhibition: at 65.8 µM (top of the series)
Summary of the method: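 Compound pre-exposure to 0.75 nM APE1, 15 min at ambient temperature. Reaction initiated with 50 nM TAMRA/BHQ-2 THF substrate, read immediately in kinetic mode, 525 nm excitation, 598 nm emission.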
Potency is the fitted concentration of half-maximal effect.

SMILES | Potency | activity change, negative = inhibition
C#CCOCCOCCOCCNc1nc(N2CCN(C(=O)CCCCCCCCCCNC(=O)[C@H](CCCCN)n3cc(C[C@@H](C)CC)nn3)CC2)nc(N2CCN(C(=O)CCCCCCCCCCNC(=O)[C@H](CCCN=C(N)N)n3cc(C[C@@H](C)CC)nn3)CC2)n1 | inconclusive: 26.7 µM [inhibitor, single point] | 
Cc1ccccc1OCC(O)Cn1c(NCc2ccco2)nc2c1c(=O)[nH]c(=O)n2C (centres undefined) | inconclusive: 3.16 µM [inhibitor, single point] | 
O=C1/C(=C\c2ccc(Br)o2)SC(=Nc2ccccc2)N1c1ccccc1 | inconclusive: 35.5 µM [inhibitor, single point] | 
Cc1noc(C)c1C(=O)Nc1ccccc1-c1ccccc1 | inconclusive: 0.0035 µM [inhibitor, full curve, poor fit] | 
COCCCn1c(SCCc2ccccc2)nc2cc(OC)c(OC)cc2c1=N | inconclusive: 35.5 µM [inhibitor, single point] | 
COc1cc(/C=N/Nc2ccc(S(N)(=O)=O)cc2[N+](=O)[O-])cc(OC)c1O | inconclusive: 44.7 µM [inhibitor, single point] | 
COc1ccccc1-c1cn[nH]c1-c1ccc(OCc2ccccc2)cc1O | inconclusive: 31.6 µM [inhibitor, single point] | 
OCCN1CCN(C(=S)c2ccc(Cl)cc2)CC1 | inconclusive: 44.7 µM [inhibitor, single point] | 
COc1cc(-c2ccc(N=Nc3ccc4c(S(=O)(=O)O)cc(S(=O)(=O)O)c(N)c4c3O)c(OC)c2)ccc1N=Nc1ccc2c(S(=O)(=O)O)cc(S(=O)(=O)O)c(N)c2c1O | active: 2.24 µM and active: 1.41 µM | 
CN(C)c1cc2c(Nc3ccc4c(cnn4Cc4ccccc4)c3)ncnc2cn1 | inconclusive: 17.8 µM [inhibitor, partial curve] | 
CN(C)C(=O)c1ccc(-c2cncnc2-n2ccnc2)cc1 | inconclusive: 44.7 µM [inhibitor, single point] | 
CCCc1nnc(NC(=O)Cn2cnc3ccccc3c2=O)s1 | inconclusive: 12.6 µM [inhibitor, partial curve, poor fit] | 
Cc1noc2ncc(C(=O)c3cc(F)ccc3O)cc12 | inconclusive: 6.31 µM [inhibitor, single point] | 
CC(=O)Nc1ccc(NC(=O)CCc2nc3sc4c(c3c(=O)[nH]2)CCCC4)cc1 |  | inactive: -14.6%
COc1ncc(-c2ccc3c(c2)S(=O)(=O)c2cccc(C(=O)O)c2C3=O)cn1 | inconclusive: 23.8 µM [inhibitor, single point] | 
Cc1cn(C2CC3OCC(NC(=O)C(NC(=O)OC(C)(C)C)C(C)OCc4ccccc4)C3O2)c(=O)[nH]c1=O (centres undefined) |  | inactive: -0.873%
CC(C(=O)O)n1nc(-c2ccccc2)c2ccccc21 (centres undefined) |  | inactive: 31%
O=C(Nc1ccc(F)cc1F)NC1CCN(S(=O)(=O)c2ccc(F)cc2)CC1 | inconclusive: 2.51 µM [inhibitor, full curve, poor fit] | 
CCCCN(C)CCC(=O)Nc1ccc(Cl)cc1 | inconclusive: 0.004 µM [inhibitor, full curve, poor fit] | 
COC(=O)N(/C=C/c1ccc(OC)cc1)CCc1ccc(OC)c(OC)c1 | inconclusive: 3.16 µM [inhibitor, single point] | 

SMILES | Potency | activity change, negative = inhibition
O=C(COC(=O)/C=C/c1ccc(Cl)cc1)Nc1ccc2c(c1)OCCO2 | inconclusive: 1.41 µM [inhibitor, full curve] | 
CC(=O)c1c(NC(=O)c2ccccc2)[nH]c(-c2ccccc2)nc1=S | inconclusive: 0.631 µM [inhibitor, full curve] | 
NC(=O)c1ccc(SCC(=O)NC2CCCCC2)c([N+](=O)[O-])c1 | inconclusive: 31.6 µM [inhibitor, partial curve, poor fit] | 
COC(=O)C1=C(C(=O)OC)[C@@H]2N(Cc3ccccc3)c3ccccc3[C@@]23C[C@@H](C(=O)OC)N=C3N1 | inactive | 
O=C(O)c1cc(-c2cccc([N+](=O)[O-])c2)nc2ccccc12 | inconclusive: 0.199 µM [inhibitor, full curve, poor fit] | 
CSC1=N/C(=C\C=C\c2cccs2)C(=O)S1 | inconclusive: 39.8 µM [inhibitor, single point] | 
O=C(Nc1ccccc1)N1CCCC1c1cccs1 (centres undefined) | inconclusive: 3.55 µM [inhibitor, partial curve] | 
N=c1c(C(=O)NC2CCCC2)cc2c(=O)n3ccccc3nc2n1C1CCCC1 | inconclusive: 11.2 µM [inhibitor, partial curve] | 
N#CC(=C(/N)Sc1ccccc1N)/C(C#N)=C(/N)Sc1ccccc1N | inconclusive: 3.98 µM [inhibitor, full curve, poor fit] | 
CN1CCc2c(sc3c2C(=O)NC(c2ccc(-c4cccc(Cl)c4)o2)N3)C1 (centres undefined) | inconclusive: 39.8 µM [inhibitor, single point] | 
COc1ccc(C(=O)Nc2ccccc2C(=O)O)cc1NC(=O)C(c1ccccc1)c1ccccc1 |  | inactive: -3.06%
O=c1oc2c(CN3CCOCC3)c(O)c(Cl)cc2c2c1CCCC2 | inconclusive: 35.5 µM [inhibitor, partial curve, poor fit] | 
Cc1c(Br)c([N+](=O)[O-])nn1CC(=O)Nc1sc2c(c1C(=O)OC(C)C)CCCC2 | inconclusive: 0.005 µM [inhibitor, full curve, poor fit] | 
Cc1ccc(NC(=O)CSCc2nc3c(nnn3Cc3ccc(F)cc3)c(=O)[nH]2)c(C)c1 | inconclusive: 25.1 µM [inhibitor, partial curve] | 
O=C(N/N=C/C(Br)=C/c1ccccc1)c1cc(-c2ccco2)[nH]n1 | inconclusive: 39.8 µM [inhibitor, single point] | 
CCOC(=O)c1[nH]c2ccccc2c1NC(=O)c1ccc(Br)o1 | inconclusive: 17.8 µM [inhibitor, single point] | 
COc1ccc(Cc2nnc(SCC(=O)NCc3ccco3)o2)cc1 | inconclusive: 39.8 µM [inhibitor, single point] | 
COc1cc(/C=C2/C(=O)NN(c3ccc(C)c(Cl)c3)C2=O)cc([N+](=O)[O-])c1O |  | inactive: -26%
CC(=O)OCC(=O)[C@@]1(O)CCC2C3CC(C)C4=CC(=O)C=CC4(C)C3C(O)CC21C (some centres undefined) | inconclusive: 0.0224 µM [inhibitor, full curve, poor fit] | 
COc1ccc2c([N+](=O)[O-])c(Cl)[nH]c2c1 |  | inactive: 1.56%

Filtered by structure, the compounds so far with an aryl thioether with sulfur outside any ring
SMILES | Potency | activity change, negative = inhibition
COCCCn1c(SCCc2ccccc2)nc2cc(OC)c(OC)cc2c1=N | inconclusive: 35.5 µM [inhibitor, single point] | 
NC(=O)c1ccc(SCC(=O)NC2CCCCC2)c([N+](=O)[O-])c1 | inconclusive: 31.6 µM [inhibitor, partial curve, poor fit] | 
N#CC(=C(/N)Sc1ccccc1N)/C(C#N)=C(/N)Sc1ccccc1N | inconclusive: 3.98 µM [inhibitor, full curve, poor fit] | 
COc1ccc(Cc2nnc(SCC(=O)NCc3ccco3)o2)cc1 | inconclusive: 39.8 µM [inhibitor, single point] | 

The list goes on:

SMILES | Potency | activity change, negative = inhibition
CC(NC(=O)Nc1ccccc1O)(C(F)(F)F)C(F)(F)F | inconclusive: 0.562 µM [inhibitor, full curve, poor fit] | 
Cc1cccc(NC(=O)C2CC(=O)OC23CCCC3)c1 (centres undefined) | inconclusive: 44.7 µM [inhibitor, single point] | 
COc1ccc(C(=O)NC(=S)Nc2nc(C)cc(C)n2)cc1Br | inconclusive: 50.1 µM [inhibitor, partial curve, poor fit] | 
CCCCC[C@H](O)/C=C/C=C/C/C=C\CCCC(=O)O |  | inactive: 2.81%
Cc1cc(C)nc(N(C#N)S(=O)(=O)c2ccccc2)n1 | inconclusive: 0.891 µM [inhibitor, full curve, poor fit] | 
O=C(Nc1sc2c(c1C(=O)O)CCC2)c1ccccc1 | inconclusive: 25.1 µM [inhibitor, partial curve] | 
CS(=O)(=O)c1ccc(Cl)c(NC(=O)C2CC(=O)N(Cc3ccco3)C2)c1 (centres undefined) |  | inactive: 24.4%
COC(=O)c1cc(OC)c(OC)cc1NC(=O)c1cnccn1 | inconclusive: 44.7 µM [inhibitor, single point] | 
COc1ccc(S(=O)(=O)NC2CCCCCC2)c(OC)c1 |  | inactive: -12.3%
O=C(CSc1n[nH]c(-c2ccccc2)n1)c1ccc(O)c(O)c1 | inconclusive: 25.1 µM [inhibitor, single point] | 
CC[C@H](C)[C@H](NC(=O)CNC(=O)[C@H](C)NC(=O)[C@H](C)N)C(=O)NCC(=O)N[C@H](C(=O)N[C@@H](CC(C)C)C(=O)N[C@H](C(=O)N[C@H](C(=O)O)C(C)C)[C@@H](C)O)[C@@H](C)CC |  | inactive: -1.51%
Cc1ccc(NC(=O)c2cccc(OCc3c(C)noc3C)c2)cc1S(=O)(=O)Nc1ccccc1Cl | inconclusive: 44.7 µM [inhibitor, single point] | 
CCOc1ccc(NC(=O)CSc2nccn(-c3ccc4c(c3)OCCO4)c2=O)cc1 |  | inactive: 13.5%
CN1CCN(C(=O)C2=C[C@@H](C3CCCCC3)C[C@@H](OCc3ccc(CO)cc3)O2)CC1 | inconclusive: 1000 µM [inhibitor, partial curve, poor fit] | 
O=C(NCc1ccncc1)C(=O)NCC1OCCN1S(=O)(=O)c1ccc(Cl)cc1 (centres undefined) | inconclusive: 37.7 µM [inhibitor, single point] | 
CC(=O)OC[C@@H]1O[C@@H](O/N=C2/C[C@@H](O)[C@@H](O)[C@@H]3[C@@H]4C(=O)N(Cc5ccc6c(c5)OCO6)C(=O)[C@H]4CC[C@H]23)[C@H](OC(C)=O)[C@H](OC(C)=O)[C@@H]1OC(C)=O | inconclusive: 8.91 µM [inhibitor, single point] | 
O=C(Nc1ccc(Cl)cc1)OCc1cn(-c2ccc(Cl)cc2)nn1 | inconclusive: 39.8 µM [inhibitor, single point] | 
COc1cc(C2C(C#N)=C(C)NC3=C2C(=O)CC(C)(C)C3)ccc1O (centres undefined) | inconclusive: 22.4 µM [inhibitor, single point] | 
Cc1onc(-c2ccccc2Cl)c1C(=O)Nc1nnc(-c2ccc(Cl)cc2Cl)s1 | inconclusive: 22.4 µM [inhibitor, partial curve] | 
